# PubChem BioAssay AID504791 | Drosophila RNAi Screening Center – 2011
# Test: 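Factors in Argonaute-based small RNA production and activity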 (primary screen)
# Cells: Drosophila S2-derived reporter cells
# Knock-down reagent: long dsRNA against Drosophila genes, about 150-250 ng dsRNA per well (siRNA assay); about 80-120 ng (miRNA assay)
# Duration: about 5 days (siRNA assay); about 4 days (miRNA assay)
# Challenge: copper sulfate induction of reporters: 25 µM (siRNA assay); 200 mM stated (miRNA assay), 1-2 days before reading
# Read-out: 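Dual luciferase assay: Renilla to firefly signal ratio in each well, scaled to the mean ratio of its plate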
# Active means: 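a well was a first-pass pick when its plate-scaled ratio rose above 1.5 (siRNA assay) or 1.6 (miRNA assay), or dropped below 0.6; a gene counted only if two separate dsRNAs agreed on retest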
# The deposit covers about 23,000 reagents; this is an unselected part of those with a known target gene and a result. In the full data, 199 (0.86%) are marked active. 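Plate-scaled ratios behind the calls are not deposited; printed light signals are raw; many rows marked increased or decreased are still called inactive.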 Names joined by + are all predicted targets of the reagent. Reagent sequences are not shown. Not stated in the record: the direction of the score.
gene,amplicon,"stable assay Renilla, run 1 (luminescence)","stable assay firefly, run 1 (luminescence)",Outcome
CG42505 + CG42504 + CG31358,DRSC15235,9252,4.59e5,inactive
CG42505 + CG42504 + CG31358,DRSC15308,5943,6.21e5,inactive
CG42505 + CG42504 + CG31358,DRSC15309,7039,4.12e5,inactive
l(2)27Cb (retired record),DRSC02758,8295,3.31e5,inactive
Psf3,DRSC18216,4672,4.55e5,inactive
Psf3,DRSC21487,9889,6.03e5,inactive
Glyp,DRSC00752,5875,5.66e5,inactive
Als2,DRSC11806,8326,2.78e5,inactive
CG30158,DRSC04956,4387,5.42e5,inactive
CG30158,DRSC04974,6860,4.24e5,inactive
CG30158,DRSC04975,5650,3.66e5,inactive
CG30158,DRSC05012,6203,3.64e5,inactive
Tsp74F,DRSC10508,7184,3.88e5,inactive
e(y)2,DRSC19640,7159,6.19e5,inactive
l(2)37Cb,DRSC02095,97974,1.62e6,inactive
Datp,DRSC01102,5379,4.26e5,inactive
Arpc2,DRSC02113,8577,1.77e6,inactive
RASSF8,DRSC15707,7406,4.30e5,inactive
CG13041,DRSC09922,7259,4.65e5,inactive
CG17217,DRSC02592,7982,3.92e5,inactive
CG31266,DRSC15747,6298,3.50e5,inactive
Wdr37,DRSC14500,9446,3.47e5,inactive
CG12716,DRSC19493,5147,5.56e5,inactive
CG14105,DRSC10107,6282,3.54e5,inactive
Gpo2,DRSC06822,6266,3.04e5,inactive
Ir54a + sub,DRSC06459,6419,3.44e5,inactive
CG13700,DRSC10049,6647,3.07e5,inactive
CR42785,DRSC04962,5140,4.38e5,inactive
CG8661,DRSC20115,5774,5.28e5,inactive
lola,DRSC05220,5571,2.96e5,inactive
lola,DRSC05221,7083,5.67e5,inactive
lola,DRSC05222,7522,5.94e5,inactive
lola,DRSC05223,7190,4.13e5,inactive
lola,DRSC05224,8002,5.39e5,inactive
lola,DRSC06738,7135,3.71e5,inactive
lola,DRSC06739,6311,3.10e5,inactive
lola,DRSC06740,6966,3.39e5,inactive
lola,DRSC06741,8834,4.95e5,inactive
lola,DRSC06742,4823,2.48e5,inactive
lola,DRSC07646,7039,3.22e5,inactive
lola,DRSC07647,5375,2.49e5,inactive
